The target of this assay is T1, Protein phosphatase 1A (mouse (endogenous in NIH-3T3)) (UniProt P49443).
T1 sequence: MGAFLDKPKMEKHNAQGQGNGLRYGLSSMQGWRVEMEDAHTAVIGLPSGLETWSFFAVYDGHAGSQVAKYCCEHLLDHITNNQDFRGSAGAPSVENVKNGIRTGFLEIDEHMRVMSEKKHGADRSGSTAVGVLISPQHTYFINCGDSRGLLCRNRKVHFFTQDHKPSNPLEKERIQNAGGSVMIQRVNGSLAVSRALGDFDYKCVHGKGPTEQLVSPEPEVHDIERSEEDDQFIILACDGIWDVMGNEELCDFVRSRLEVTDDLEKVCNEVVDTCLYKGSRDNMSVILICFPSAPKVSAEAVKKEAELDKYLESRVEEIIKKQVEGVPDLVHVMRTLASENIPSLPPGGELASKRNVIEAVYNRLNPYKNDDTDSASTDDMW
Kind of assay: co-IP.

The chains behind the UniProt entries cited, without tags or fusion partners.
UniProt Q8BUN5: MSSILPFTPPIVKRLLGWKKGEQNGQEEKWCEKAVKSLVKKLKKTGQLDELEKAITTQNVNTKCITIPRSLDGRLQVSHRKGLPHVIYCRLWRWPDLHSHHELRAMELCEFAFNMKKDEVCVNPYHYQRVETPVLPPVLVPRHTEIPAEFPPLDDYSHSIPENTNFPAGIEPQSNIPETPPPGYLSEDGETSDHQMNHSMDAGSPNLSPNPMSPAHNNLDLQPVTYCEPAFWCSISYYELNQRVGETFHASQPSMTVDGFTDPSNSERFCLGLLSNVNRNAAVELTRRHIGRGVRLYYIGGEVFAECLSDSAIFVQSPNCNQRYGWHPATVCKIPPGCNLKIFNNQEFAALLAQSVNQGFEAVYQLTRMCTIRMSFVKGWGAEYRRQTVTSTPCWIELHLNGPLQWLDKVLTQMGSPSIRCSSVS

No constants are given. Whether binding was seen depends on the method and setting. In cells and extracts the contact can be indirect. Some results given as binding are weak or reduced against the parent protein; the word gives no strength.

For “Mothers against decapentaplegic homolog 3 (from UniProt Q8BUN5 1-425)”, the binding entry is “binds”.
